Reference: PubChem BioAssay AID1259254 (NCATS, 2017)

Screen: 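Gene knock-downs that lead to re-replication, shown by excess G2 DNA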 (primary screen)
Cells: human HCT116 colorectal cancer cells
Reagents: single siRNA against human genes
Duration: 3 days
Detection: 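Nuclei stained with Hoechst and imaged; cell-cycle phase assigned by DNA content; G2 share scaled per plate, non-targeting siRNA 0%, GMNN siRNA 100%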
Direction: G2 robust z-score and G2 cells, % of GMNN control: higher = more G2 cells, more excess DNA replication; raw share of cells in G2: higher = larger share of cells with G2 DNA content
Rule for the call: 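Active siRNAs have a G2 robust z of 5 or more median absolute deviations over the median, which in these data means about 38% or higher of GMNN control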
This is an unselected part of about 59,000 reagents. About 1,550 of them (2.6%) were called active. 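G2 share is only a proxy for re-replication; each gene was hit by three separate siRNAs, and active genes were retested.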 Raw values are not corrected between plates. Entries without a mark were called inactive. Reagents against one gene are numbered here. No sequences are given here. Not given: the amount of reagent.

gene symbol | reagent no. | G2 robust z-score | G2 cells, % of GMNN control | raw share of cells in G2 (%)
ZNF581 (zinc finger protein 581) | 1 | 0.055 | 3.35 | 3.98
ZNF581 (zinc finger protein 581) | 2 | -0.235 | 1.32 | 6.5
ZNF581 (zinc finger protein 581) | 3 | -0.968 | -3.85 | 2.42
RPL35P10 (ribosomal protein L35 pseudogene 10) | 1 | 0.0607 | 3.39 | 4.86
RPL35P10 (ribosomal protein L35 pseudogene 10) | 2 | -0.0201 | 2.83 | 5.96
RPL35P10 (ribosomal protein L35 pseudogene 10) | 3 | 0.45 | 6.13 | 6.04
CELA2B (chymotrypsin like elastase 2B) | 1 | 0.0517 | 3.33 | 6.72
CELA2B (chymotrypsin like elastase 2B) | 2 | 2.69 | 21.9 | 12.6
CELA2B (chymotrypsin like elastase 2B) | 3 | -0.967 | -3.84 | 2.48
SLC18B1 | 1 | -0.525 | -0.724 | 3.8
SLC18B1 | 2 | 2.08 | 17.6 | 8.58
SLC18B1 | 3 | -0.113 | 2.17 | 2.45
HEPN1 (hepatocellular carcinoma, down-regulated 1) | 1 | 0.148 | 4.01 | 5.17
HEPN1 (hepatocellular carcinoma, down-regulated 1) | 2 | 0.619 | 7.32 | 6.19
HEPN1 (hepatocellular carcinoma, down-regulated 1) | 3 | -0.799 | -2.65 | 2.22
PRSS12 (serine protease 12) | 1 | -0.885 | -3.26 | 4.42
PRSS12 (serine protease 12) | 2 | 2.26 | 18.8 | 11.6
PRSS12 (serine protease 12) | 3 | -0.682 | -1.83 | 3.23
CEP112 (centrosomal protein 112) | 1 | -0.566 | -1.01 | 2.44
CEP112 (centrosomal protein 112) | 2 | 0.517 | 6.61 | 5.97
CEP112 (centrosomal protein 112) | 3 | 1.58 | 14.1 | 7.67
PELI1 (pellino E3 ubiquitin protein ligase 1) | 1 | 1.25 | 11.7 | 8.98
PELI1 (pellino E3 ubiquitin protein ligase 1) | 2 | 1.6 | 14.2 | 11.2
PELI1 (pellino E3 ubiquitin protein ligase 1) | 3 | 0.174 | 4.19 | 4.36
KRTAP8-1 (keratin associated protein 8-1) | 1 | 0.748 | 8.23 | 6.86
KRTAP8-1 (keratin associated protein 8-1) | 2 | 0.343 | 5.38 | 6.35
KRTAP8-1 (keratin associated protein 8-1) | 3 | -0.247 | 1.23 | 4.41
PRSS58 (serine protease 58) | 1 | -0.419 | 0.0184 | 4.27
PRSS58 (serine protease 58) | 2 | 1.12 | 10.8 | 10.2
PRSS58 (serine protease 58) | 3 | 0.129 | 3.88 | 5.75
BRPF3 (bromodomain and PHD finger containing 3) | 1 | 8.89 (active) | 65.5 | 35.9
BRPF3 (bromodomain and PHD finger containing 3) | 2 | -0.708 | -2.01 | 3.33
BRPF3 (bromodomain and PHD finger containing 3) | 3 | -0.597 | -1.24 | 3.78
LNPEP (leucyl and cystinyl aminopeptidase) | 1 | -1 | -4.07 | 4.14
LNPEP (leucyl and cystinyl aminopeptidase) | 2 | 0.706 | 7.94 | 7.72
LNPEP (leucyl and cystinyl aminopeptidase) | 3 | -0.197 | 1.58 | 4.5
CCDC85A (coiled-coil domain containing 85A) | 1 | 0.687 | 7.8 | 7.22
CCDC85A (coiled-coil domain containing 85A) | 2 | -0.346 | 0.531 | 3.49
CCDC85A (coiled-coil domain containing 85A) | 3 | -0.428 | -0.0469 | 1.8
ZDHHC7 (zDHHC palmitoyltransferase 7) | 1 | 4.57 | 35.1 | 19
ZDHHC7 (zDHHC palmitoyltransferase 7) | 2 | 0.794 | 8.55 | 10.2
ZDHHC7 (zDHHC palmitoyltransferase 7) | 3 | 0.155 | 4.06 | 5.89
GLI1 (GLI family zinc finger 1) | 1 | -0.745 | -2.28 | 2.56
GLI1 (GLI family zinc finger 1) | 2 | 2.11 | 17.8 | 13.2
GLI1 (GLI family zinc finger 1) | 3 | 0.0833 | 3.55 | 4.4
SNX14 (sorting nexin 14) | 1 | 0.166 | 4.13 | 7.36
SNX14 (sorting nexin 14) | 2 | -0.187 | 1.65 | 4.93
SNX14 (sorting nexin 14) | 3 | 2.17 | 18.2 | 10.8
B3GNT3 | 1 | 0.712 | 7.98 | 9.16
B3GNT3 | 2 | -0.74 | -2.24 | 5.59
B3GNT3 | 3 | -0.312 | 0.769 | 4.09
SLC25A21 | 1 | -0.24 | 1.28 | 4.96
SLC25A21 | 2 | 0.195 | 4.34 | 6.83
SLC25A21 | 3 | 0.24 | 4.65 | 7.83
NSUN4 (NOP2/Sun RNA methyltransferase 4) | 1 | -0.479 | -0.401 | 5.73
NSUN4 (NOP2/Sun RNA methyltransferase 4) | 2 | -0.635 | -1.5 | 4.37
NSUN4 (NOP2/Sun RNA methyltransferase 4) | 3 | 0.956 | 9.69 | 7.82
CASR (calcium sensing receptor) | 1 | -0.578 | -1.1 | 5.45
CASR (calcium sensing receptor) | 2 | 0.651 | 7.55 | 7.16
CASR (calcium sensing receptor) | 3 | -0.683 | -1.84 | 2.71
PRIM1 (DNA primase subunit 1) | 1 | -0.9 | -3.37 | 3.03
PRIM1 (DNA primase subunit 1) | 2 | 2.13 | 17.9 | 11.1
PRIM1 (DNA primase subunit 1) | 3 | -0.564 | -1 | 4.3
H3C12 (H3 clustered histone 12) | 1 | -0.0358 | 2.72 | 6.34
H3C12 (H3 clustered histone 12) | 2 | -0.94 | -3.65 | 2.45
H3C12 (H3 clustered histone 12) | 3 | 4.17 | 32.3 | 14.8
SRPK1 (SRSF protein kinase 1) | 1 | -0.903 | -3.39 | 4.49
SRPK1 (SRSF protein kinase 1) | 2 | -0.71 | -2.03 | 3.31
SRPK1 (SRSF protein kinase 1) | 3 | -0.718 | -2.08 | 4.71
PRDM7 (PR/SET domain 7) | 1 | 0.884 | 9.18 | 8.58
PRDM7 (PR/SET domain 7) | 2 | -0.616 | -1.37 | 3.57
PRDM7 (PR/SET domain 7) | 3 | -0.5 | -0.549 | 2.97
TRIM62 (tripartite motif containing 62) | 1 | 1.9 | 16.3 | 13.6
TRIM62 (tripartite motif containing 62) | 2 | 0.0118 | 3.05 | 5.53
TRIM62 (tripartite motif containing 62) | 3 | -0.283 | 0.974 | 4.74
TRIM8 (tripartite motif containing 8) | 1 | 1.66 | 14.6 | 9.49
TRIM8 (tripartite motif containing 8) | 2 | -1.03 | -4.26 | 3.21
TRIM8 (tripartite motif containing 8) | 3 | -0.613 | -1.35 | 4.87
L3MBTL1 (L3MBTL histone methyl-lysine binding protein 1) | 1 | 0.508 | 6.54 | 9.13
L3MBTL1 (L3MBTL histone methyl-lysine binding protein 1) | 2 | -0.964 | -3.81 | 2.92
L3MBTL1 (L3MBTL histone methyl-lysine binding protein 1) | 3 | -0.465 | -0.308 | 3.89
ATPAF1 (ATP synthase mitochondrial F1 complex assembly factor 1) | 1 | 0.228 | 4.57 | 4.4
ATPAF1 (ATP synthase mitochondrial F1 complex assembly factor 1) | 2 | 0.189 | 4.3 | 7.85
ATPAF1 (ATP synthase mitochondrial F1 complex assembly factor 1) | 3 | -0.291 | 0.917 | 3.92
RPS2P12 (ribosomal protein S2 pseudogene 12) | 1 | 0.737 | 8.15 | 6.87
RPS2P12 (ribosomal protein S2 pseudogene 12) | 2 | 1.5 | 13.5 | 8.15
RPS2P12 (ribosomal protein S2 pseudogene 12) | 3 | 2.84 | 22.9 | 9.58
